Test results published in article PMC10714399, “Open Source Antibiotics: Simple Diarylimidazoles Are Potent against Methicillin-Resistant Staphylococcus aureus” (ACS Infectious Diseases, 2023).

Tested on: Candida albicans ATCC 90028
Experiment: CO-ADD antifungal assay, C. albicans
Type: cell-based
Details: ATCC90028
Experimental: Hit Confirmation of active compounds by whole cell growth inhibition assays was conducted as an 8-point dose response to determine the Minimum Inhibitory Concentration (MIC), in duplicate (n=2). The inhibition of growth is measured against those microorganisms that […]
Included in the Hit Confirmation were 5 bacteria: Escherichia coli, Klebsiella pneumoniae, Acinetobacter baumannii, Pseudomonas aeruginosa and Staphylococcus aureus, and 2 fungi Candida albicans and Cryptococcus neoformans.
In addition to determining MIC, active compounds were counter screened for cytotoxicity against a human embryonic kidney cell line, HEK293, by determining their CC50 value. The compounds were also screened for haemolysis of human red blood cells.
Assay Parameters Bacteria Fungi HEK293 Haemolysis […]
Duplicate (n=2) Duplicate (n=2) Duplicate (n=2) Duplicate (n=2)
QC Control MIC: Control MIC: Control CC50: Control HC10:
Non-Binding Non-Binding TC, 384-well Polypropylene […]
Fungi strains were cultured for 3 days on Yeast Extract-Peptone Dextrose (YPD) agar at 30 °C. A yeast suspension of 1 x 10^6 to 5 x 10^6 CFU/mL (as determined by OD530) was prepared from five colonies. […]
In both cases, the percentage of growth inhibition was calculated for each well, using the negative control (media only) and positive control (fungi without inhibitors) on the same plate. […]
Reading Plates - Haemolysis Clear 384w Corning 3680 […]

With `OC(Cn1cncn1)(Cn1cncn1)c1ccc(F)cc1F` [Fluconazole] the MIC was 0.125 µg/mL.
